Experimental data reported in publication PMC10444762.
These are yes or no findings as the source states them, for the method shown. For part of these data: In cells and extracts the contact can be indirect. Some results given as binding are weak or reduced against the parent protein; the word gives no strength. For part of these data: Sequences can lack the tags named with a protein. Blank lines part the entries; values can stand above or below the binder they belong to.

Chains of the proteins cited; added tags and fusions are not shown.
UniProt P59941: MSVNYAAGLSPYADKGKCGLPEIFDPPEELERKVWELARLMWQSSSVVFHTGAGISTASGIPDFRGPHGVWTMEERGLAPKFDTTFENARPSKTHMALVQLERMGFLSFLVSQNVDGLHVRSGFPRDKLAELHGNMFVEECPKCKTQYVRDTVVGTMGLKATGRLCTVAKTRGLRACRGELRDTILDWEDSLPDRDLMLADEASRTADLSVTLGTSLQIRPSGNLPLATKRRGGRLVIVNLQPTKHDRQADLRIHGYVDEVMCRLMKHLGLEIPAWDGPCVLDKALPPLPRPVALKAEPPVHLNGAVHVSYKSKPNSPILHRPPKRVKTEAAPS

How the values were obtained:
[1] = target: Sirtuin 6 (SIRT6), endogenous in mouse vascular smooth muscle cells (mouse (endogenous in VSMCs from mouse aortas)) (UniProt P59941); assay: co-IP; VSMC lysates (IP lysis buffer) immunoprecipitated with anti-SIRT6 or IgG at 4 °C overnight, protein A/G magnetic beads; western blot with anti-LKB1 and anti-SIRT6
HA-tagged SIRT6 = HA-tagged SIRT6 (UniProt P59941); assay: co-IP; HEK 293T cells transfected with Flag-tagged LKB1 and HA-tagged SIRT6; lysates immunoprecipitated with IgG and anti-Flag or anti-HA at 4 °C overnight, protein A/G magnetic beads; western blot with anti-HA and anti-Flag
GST-SIRT6 = GST-SIRT6 (UniProt P59941); assay: pull-down; GST or GST-SIRT6 (1 μg)-conjugated GSH beads in NETN buffer (20 mM Tris-HCl pH 8.0, 100 mM NaCl, 1 mM EDTA, 0.5% NP40); purified His-LKB1 (1 μg) added, overnight at 4 °C, three washes; western blot with anti-His and anti-GST; both purified

- binding [1]: binds
B1: Liver kinase B1 (LKB1), endogenous in mouse vascular smooth muscle cells (enzyme, UniProt Q9WTK7 1-436)
chain: MDVADPEPLGLFSEGELMSVGMDTFIHRIDSTEVIYQPRRKRAKLIGKYLMGDLLGEGSYGKVKEVLDSETLCRRAVKILKKKKLRRIPNGEANVKKEIQLLRRLRHRNVIQLVDVLYNEEKQKMYMVMEYCVCGMQEMLDSVPEKRFPVCQAHGYFRQLIDGLEYLHSQGIVHKDIKPGNLLLTTNGTLKISDLGVAEALHPFAVDDTCRTSQGSPAFQPPEIANGLDTFSGFKVDIWSAGVTLYNITTGLYPFEGDNIYKLFENIGRGDFTIPCDCGPPLSDLLRGMLEYEPAKRFSIRQIRQHSWFRKKHPLAEALVPIPPSPDTKDRWRSMTVVPYLEDLHGRAEEEEEEDLFDIEDGIIYTQDFTVPGQVLEEEVGQNGQSHSLPKAVCVNGTEPQLSSKVKPEGRPGTANPARKVCSSNKIRRLSACKQQ

- binding (HA-tagged SIRT6): binds
B2: Flag-tagged LKB1 (enzyme, UniProt Q9WTK7 1-436)
chain: B1 chain

- binding (GST-SIRT6): binds
B3: His-LKB1 (enzyme, UniProt Q9WTK7 1-436)
chain: B1 chain
